# Test results taken from the supplement of paper PMC6411743.
# Chains of the proteins cited; added tags and fusions are not shown. Lines headed by an entry give the natural chain unless they say otherwise; changes in a name come on top.
# UniProt Q8N8N7: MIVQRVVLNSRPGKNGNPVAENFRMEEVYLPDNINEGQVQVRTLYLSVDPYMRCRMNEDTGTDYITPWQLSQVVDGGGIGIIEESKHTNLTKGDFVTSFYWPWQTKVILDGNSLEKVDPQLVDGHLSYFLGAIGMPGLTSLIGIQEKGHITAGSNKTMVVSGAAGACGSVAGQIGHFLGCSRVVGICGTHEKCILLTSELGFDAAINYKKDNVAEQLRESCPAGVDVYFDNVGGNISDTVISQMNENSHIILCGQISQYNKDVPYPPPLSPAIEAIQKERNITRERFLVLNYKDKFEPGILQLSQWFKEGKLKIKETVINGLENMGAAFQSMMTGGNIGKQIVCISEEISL
# UniProt Q8N668, whole entry: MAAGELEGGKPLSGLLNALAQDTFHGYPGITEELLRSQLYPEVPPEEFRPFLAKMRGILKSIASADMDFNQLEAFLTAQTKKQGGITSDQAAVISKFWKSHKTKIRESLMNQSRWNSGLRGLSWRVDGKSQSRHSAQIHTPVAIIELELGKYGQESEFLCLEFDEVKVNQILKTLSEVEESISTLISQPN
# UniProt Q8N697: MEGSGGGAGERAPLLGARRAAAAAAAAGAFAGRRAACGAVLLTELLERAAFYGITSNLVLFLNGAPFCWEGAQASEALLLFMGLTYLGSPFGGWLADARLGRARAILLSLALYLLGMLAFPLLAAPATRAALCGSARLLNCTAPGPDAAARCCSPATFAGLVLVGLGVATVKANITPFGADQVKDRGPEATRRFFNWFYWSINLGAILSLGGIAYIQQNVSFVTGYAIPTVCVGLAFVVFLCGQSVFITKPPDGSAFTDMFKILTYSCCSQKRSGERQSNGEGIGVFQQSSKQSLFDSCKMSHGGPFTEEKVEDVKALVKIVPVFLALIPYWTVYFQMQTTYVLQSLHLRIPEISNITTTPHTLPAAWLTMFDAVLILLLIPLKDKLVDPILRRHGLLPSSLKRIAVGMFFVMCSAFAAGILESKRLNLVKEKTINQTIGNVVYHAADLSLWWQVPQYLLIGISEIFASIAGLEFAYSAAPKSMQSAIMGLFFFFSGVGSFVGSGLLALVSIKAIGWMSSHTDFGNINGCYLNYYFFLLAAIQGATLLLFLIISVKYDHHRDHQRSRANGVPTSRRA
# UniProt Q8NAV1: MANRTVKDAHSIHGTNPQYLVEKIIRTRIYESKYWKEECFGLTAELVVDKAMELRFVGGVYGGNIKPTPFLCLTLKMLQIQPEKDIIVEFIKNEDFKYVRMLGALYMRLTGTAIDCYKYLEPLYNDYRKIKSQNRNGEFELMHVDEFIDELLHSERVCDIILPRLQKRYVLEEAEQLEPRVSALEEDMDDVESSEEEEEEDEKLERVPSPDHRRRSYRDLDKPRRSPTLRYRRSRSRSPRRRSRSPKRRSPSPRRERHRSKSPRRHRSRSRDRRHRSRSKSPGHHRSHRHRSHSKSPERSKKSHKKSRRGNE
# UniProt Q8N302: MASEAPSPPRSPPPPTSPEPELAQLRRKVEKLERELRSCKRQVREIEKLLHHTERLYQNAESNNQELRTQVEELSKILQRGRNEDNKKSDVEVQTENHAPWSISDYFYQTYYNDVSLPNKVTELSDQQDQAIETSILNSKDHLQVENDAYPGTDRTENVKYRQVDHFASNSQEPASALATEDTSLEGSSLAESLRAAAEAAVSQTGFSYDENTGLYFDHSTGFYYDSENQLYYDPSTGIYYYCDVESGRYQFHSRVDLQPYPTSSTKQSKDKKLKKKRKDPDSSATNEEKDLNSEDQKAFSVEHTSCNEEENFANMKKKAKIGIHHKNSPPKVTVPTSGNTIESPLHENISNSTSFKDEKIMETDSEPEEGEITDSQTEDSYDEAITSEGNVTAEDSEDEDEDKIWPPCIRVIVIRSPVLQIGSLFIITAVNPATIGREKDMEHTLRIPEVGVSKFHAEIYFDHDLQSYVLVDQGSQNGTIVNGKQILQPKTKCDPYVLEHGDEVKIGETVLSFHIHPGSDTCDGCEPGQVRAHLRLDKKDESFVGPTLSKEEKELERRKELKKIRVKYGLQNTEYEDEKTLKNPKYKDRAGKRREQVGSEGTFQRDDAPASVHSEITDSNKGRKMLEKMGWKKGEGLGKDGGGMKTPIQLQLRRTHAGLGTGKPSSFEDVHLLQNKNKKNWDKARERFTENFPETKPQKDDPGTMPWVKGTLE
# UniProt Q8N8J7: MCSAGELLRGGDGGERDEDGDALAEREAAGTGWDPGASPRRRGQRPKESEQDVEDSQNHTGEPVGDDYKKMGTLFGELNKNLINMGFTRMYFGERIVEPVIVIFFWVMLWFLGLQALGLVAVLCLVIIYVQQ
# UniProt Q8IVW6: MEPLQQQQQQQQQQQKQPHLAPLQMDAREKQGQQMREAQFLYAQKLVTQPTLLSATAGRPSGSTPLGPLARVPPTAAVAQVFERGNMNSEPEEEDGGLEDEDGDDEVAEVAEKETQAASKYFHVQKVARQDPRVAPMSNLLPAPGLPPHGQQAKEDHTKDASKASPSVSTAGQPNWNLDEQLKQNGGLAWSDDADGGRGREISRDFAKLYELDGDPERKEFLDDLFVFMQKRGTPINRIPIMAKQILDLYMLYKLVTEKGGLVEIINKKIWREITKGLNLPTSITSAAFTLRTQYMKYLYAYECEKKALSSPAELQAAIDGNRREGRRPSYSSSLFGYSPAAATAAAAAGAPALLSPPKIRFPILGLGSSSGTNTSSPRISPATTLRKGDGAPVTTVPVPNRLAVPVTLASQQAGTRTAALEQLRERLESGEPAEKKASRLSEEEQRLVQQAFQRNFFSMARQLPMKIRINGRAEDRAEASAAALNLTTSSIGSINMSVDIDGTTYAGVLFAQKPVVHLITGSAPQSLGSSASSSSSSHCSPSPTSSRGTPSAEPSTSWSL
# UniProt Q8NCF5: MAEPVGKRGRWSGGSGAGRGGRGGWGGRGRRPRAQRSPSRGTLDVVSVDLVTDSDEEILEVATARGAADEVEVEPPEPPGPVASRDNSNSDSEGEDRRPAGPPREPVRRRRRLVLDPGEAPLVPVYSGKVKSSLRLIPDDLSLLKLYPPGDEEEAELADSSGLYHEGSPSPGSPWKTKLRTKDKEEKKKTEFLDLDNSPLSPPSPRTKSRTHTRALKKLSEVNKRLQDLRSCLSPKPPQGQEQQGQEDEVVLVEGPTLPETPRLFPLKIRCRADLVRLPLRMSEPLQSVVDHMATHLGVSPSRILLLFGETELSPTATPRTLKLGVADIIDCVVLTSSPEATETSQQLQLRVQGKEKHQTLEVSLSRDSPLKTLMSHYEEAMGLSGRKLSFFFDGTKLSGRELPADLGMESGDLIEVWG
# UniProt Q8N0Z6: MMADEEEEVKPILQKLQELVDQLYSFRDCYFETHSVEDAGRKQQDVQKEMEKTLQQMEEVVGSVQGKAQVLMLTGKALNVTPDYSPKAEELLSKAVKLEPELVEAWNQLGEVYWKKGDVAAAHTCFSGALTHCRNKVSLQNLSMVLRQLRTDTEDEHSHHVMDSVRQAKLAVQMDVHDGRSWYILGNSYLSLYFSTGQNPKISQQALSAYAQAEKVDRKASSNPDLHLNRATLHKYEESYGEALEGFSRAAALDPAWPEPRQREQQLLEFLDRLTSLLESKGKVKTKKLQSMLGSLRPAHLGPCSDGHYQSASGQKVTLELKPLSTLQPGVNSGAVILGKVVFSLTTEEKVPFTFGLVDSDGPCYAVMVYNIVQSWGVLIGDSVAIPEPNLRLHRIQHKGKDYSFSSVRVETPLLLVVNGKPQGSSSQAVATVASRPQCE
# UniProt Q8N806: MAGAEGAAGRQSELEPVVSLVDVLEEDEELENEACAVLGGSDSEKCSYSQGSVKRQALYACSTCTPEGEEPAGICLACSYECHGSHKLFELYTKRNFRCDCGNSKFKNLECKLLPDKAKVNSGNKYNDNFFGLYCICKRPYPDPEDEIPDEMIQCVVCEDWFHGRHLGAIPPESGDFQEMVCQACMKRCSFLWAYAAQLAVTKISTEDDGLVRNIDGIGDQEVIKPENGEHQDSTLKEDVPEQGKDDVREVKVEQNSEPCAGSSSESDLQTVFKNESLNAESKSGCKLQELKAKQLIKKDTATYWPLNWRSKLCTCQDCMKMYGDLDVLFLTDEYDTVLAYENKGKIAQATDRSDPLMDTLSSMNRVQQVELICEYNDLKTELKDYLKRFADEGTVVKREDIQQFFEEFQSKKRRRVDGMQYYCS
# UniProt Q8N3F8: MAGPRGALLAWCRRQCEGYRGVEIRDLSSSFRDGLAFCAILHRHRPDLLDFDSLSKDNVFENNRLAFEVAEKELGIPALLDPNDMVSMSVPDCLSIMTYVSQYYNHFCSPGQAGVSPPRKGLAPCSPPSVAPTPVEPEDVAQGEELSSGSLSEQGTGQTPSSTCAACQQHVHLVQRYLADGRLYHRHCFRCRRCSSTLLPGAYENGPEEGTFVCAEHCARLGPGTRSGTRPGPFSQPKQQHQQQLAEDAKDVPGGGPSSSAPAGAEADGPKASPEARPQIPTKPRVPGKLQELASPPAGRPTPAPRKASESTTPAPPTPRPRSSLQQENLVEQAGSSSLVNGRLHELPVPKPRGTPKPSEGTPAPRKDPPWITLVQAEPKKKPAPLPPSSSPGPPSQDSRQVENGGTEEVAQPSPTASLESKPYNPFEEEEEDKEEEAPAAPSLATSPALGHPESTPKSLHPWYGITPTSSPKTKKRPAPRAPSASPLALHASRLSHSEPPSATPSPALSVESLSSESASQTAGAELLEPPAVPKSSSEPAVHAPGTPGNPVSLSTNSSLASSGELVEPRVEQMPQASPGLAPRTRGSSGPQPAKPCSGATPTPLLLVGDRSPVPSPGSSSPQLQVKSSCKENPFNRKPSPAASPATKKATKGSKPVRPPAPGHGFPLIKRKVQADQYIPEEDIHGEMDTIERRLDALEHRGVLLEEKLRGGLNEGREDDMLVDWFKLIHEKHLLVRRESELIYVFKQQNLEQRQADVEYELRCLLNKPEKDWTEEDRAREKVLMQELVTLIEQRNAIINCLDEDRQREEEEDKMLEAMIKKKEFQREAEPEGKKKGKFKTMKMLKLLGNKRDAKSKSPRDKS
# UniProt Q8IZ07: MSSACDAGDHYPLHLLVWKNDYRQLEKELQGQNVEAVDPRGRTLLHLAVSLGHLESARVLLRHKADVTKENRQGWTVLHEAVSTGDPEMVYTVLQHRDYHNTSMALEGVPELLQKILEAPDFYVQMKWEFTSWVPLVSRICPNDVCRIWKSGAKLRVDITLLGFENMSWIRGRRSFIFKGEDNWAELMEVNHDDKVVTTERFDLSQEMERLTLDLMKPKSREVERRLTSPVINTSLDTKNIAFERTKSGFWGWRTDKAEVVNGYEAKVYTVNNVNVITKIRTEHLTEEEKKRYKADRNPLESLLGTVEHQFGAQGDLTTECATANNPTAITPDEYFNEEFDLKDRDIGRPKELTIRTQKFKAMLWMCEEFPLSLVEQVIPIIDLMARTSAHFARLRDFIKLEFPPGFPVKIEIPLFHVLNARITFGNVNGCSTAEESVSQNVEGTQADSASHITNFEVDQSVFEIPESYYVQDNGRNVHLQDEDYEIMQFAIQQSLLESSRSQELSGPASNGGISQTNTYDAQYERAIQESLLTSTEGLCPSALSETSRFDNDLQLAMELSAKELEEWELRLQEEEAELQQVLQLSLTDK
# UniProt Q8N8E3: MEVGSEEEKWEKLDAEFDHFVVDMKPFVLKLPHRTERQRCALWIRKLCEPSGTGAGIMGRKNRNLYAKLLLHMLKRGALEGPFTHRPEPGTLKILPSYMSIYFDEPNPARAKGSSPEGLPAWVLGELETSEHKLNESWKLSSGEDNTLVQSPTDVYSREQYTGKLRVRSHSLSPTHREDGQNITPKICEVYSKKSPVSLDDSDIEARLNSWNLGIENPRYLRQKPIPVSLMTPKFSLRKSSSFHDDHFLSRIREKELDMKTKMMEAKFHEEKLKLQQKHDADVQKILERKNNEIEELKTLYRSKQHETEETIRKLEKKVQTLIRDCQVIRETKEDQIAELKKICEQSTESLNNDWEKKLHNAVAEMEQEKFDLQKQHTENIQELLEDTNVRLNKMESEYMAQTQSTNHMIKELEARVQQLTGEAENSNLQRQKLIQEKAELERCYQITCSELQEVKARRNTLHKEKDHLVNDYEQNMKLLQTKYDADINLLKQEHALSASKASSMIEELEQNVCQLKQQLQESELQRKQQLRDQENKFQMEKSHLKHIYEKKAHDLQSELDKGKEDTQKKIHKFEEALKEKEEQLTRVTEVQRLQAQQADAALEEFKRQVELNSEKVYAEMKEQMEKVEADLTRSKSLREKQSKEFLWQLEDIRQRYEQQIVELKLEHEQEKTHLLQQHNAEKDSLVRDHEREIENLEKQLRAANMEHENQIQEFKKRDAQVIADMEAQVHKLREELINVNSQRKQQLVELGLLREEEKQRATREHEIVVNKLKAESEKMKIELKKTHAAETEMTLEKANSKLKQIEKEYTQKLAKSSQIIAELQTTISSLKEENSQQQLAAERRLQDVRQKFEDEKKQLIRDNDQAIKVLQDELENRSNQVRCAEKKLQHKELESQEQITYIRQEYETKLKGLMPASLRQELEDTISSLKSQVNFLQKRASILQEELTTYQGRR
# ± gives the standard deviation of the averaged measurements. The list shows a part of the results, in another mix than the full data.
# Compound: Nc1ncnc2c1ncn2[C@@H]1O[C@H](COP(=O)(O)OP(=O)(O)OP(=O)(O)O)[C@@H](O)[C@H]1O [adenosine triphosphate]
# Assay: NP40-soluble protein abundance relative to vehicle (solubility fold change) (ratio); higher = more soluble protein in presence of ATP
# How it was run: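 Across three independent experiments, values are fold changes against the detergent-processed vehicle for each replicate, based on vsn-normalised intensities. The samples were Jurkat crude lysate treated with eight concentrations (0.1 to 10 mM) for 10 min at room temperature and then 3 min at 37 °C. Lysate was solubilised with 0.8% NP40 and benzonase, ultracentrifuged, and the supernatant analysed by TMT-labelled LC-MS/MS.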
Target,NP40-soluble protein abundance (concentration: 1mM),NP40-soluble protein abundance (concentration: 2mM),NP40-soluble protein abundance (concentration: 4mM),NP40-soluble protein abundance (concentration: 6mM),NP40-soluble protein abundance (concentration: 8mM),NP40-soluble protein abundance (concentration: 10mM)
PTGR2 (UniProt Q8N8N7),0.969 ± 0.032,0.982 ± 0.027,1.02 ± 0.11,1.05 ± 0.051,0.955 ± 0.041,1.03 ± 0.067
MLKL (UniProt Q8NB16),1.01 ± 0.09,1 ± 0.04,0.986 ± 0.056,0.962 ± 0.089,0.955 ± 0.055,0.995 ± 0.04
COMMD1 (UniProt Q8N668),0.963 ± 0.066,0.951 ± 0.057,0.901 ± 0.067,0.938 ± 0.081,0.921 ± 0.05,0.853 ± 0.11
SLC15A4 (UniProt Q8N697),0.935 ± 0.084,0.97 ± 0.16,0.938 ± 0.1,0.971 ± 0.11,0.934 ± 0.082,0.94 ± 0.067
UniProt Q8ND04 and related entries,1.01 ± 0.034,1.04 ± 0.078,1.05 ± 0.06,1.01 ± 0.039,1.04 ± 0.046,1.05 ± 0.048
UniProt Q8NHM5 and related entries,1.12 ± 0.053,1.11 ± 0.085,1.12 ± 0.1,1.09 ± 0.09,1.11 ± 0.035,1.18 ± 0.037
PRPF38A (UniProt Q8NAV1),1.11 ± 0.046,1.17 ± 0.036,1.07 ± 0.044,1.01 ± 0.098,0.991 ± 0.061,1.13 ± 0.041
AGGF1 (UniProt Q8N302),1.07 ± 0.033,1.08 ± 0.08,1.09 ± 0.045,1.06 ± 0.061,1.08 ± 0.011,1.11 ± 0.1
UniProt Q8N128 and related entries,0.921 ± 0.032,0.938 ± 0.039,0.938 ± 0.036,0.907 ± 0.033,0.885 ± 0.041,0.897 ± 0.054
UniProt Q8N8J7,0.952 ± 0.015,0.961 ± 0.14,0.965 ± 0.03,0.896 ± 0.056,0.914 ± 0.11,0.935 ± 0.12
UniProt Q8IVW6 and related entries,1.07 ± 0.06,1 ± 0.011,1.08 ± 0.14,1.04 ± 0.058,0.98 ± 0.04,0.976 ± 0.017
UniProt Q8NA72 and related entries,1.01 ± 0.075,1.01 ± 0.044,1.04 ± 0.098,1.01 ± 0.15,1.11 ± 0.07,1.03 ± 0.11
PIAS4 (UniProt Q8N2W9),0.933 ± 0.067,0.969 ± 0.051,0.997 ± 0.076,0.934 ± 0.032,0.971 ± 0.084,0.954 ± 0.066
RNF169 (UniProt Q8NCN4),1.17 ± 0.12,1.24 ± 0.15,1.27 ± 0.16,1.41 ± 0.18,1.37 ± 0.22,1.44 ± 0.19
NFATC2IP (UniProt Q8NCF5),1.03 ± 0.087,0.894 ± 0.15,0.979 ± 0.086,0.982 ± 0.033,0.9 ± 0.068,0.89 ± 0.076
RNF168 (UniProt Q8IYW5),0.92 ± 0.026,0.932 ± 0.025,0.9569 ± 0.0069,1.01 ± 0.018,1.01 ± 0.039,1.03 ± 0.014
UBR1 (UniProt Q8IWV7),1.09 ± 0.081,1.05 ± 0.11,1.07 ± 0.099,0.985 ± 0.041,1.04 ± 0.062,0.995 ± 0.031
TTC5 (UniProt Q8N0Z6),0.9498 ± 0.0036,0.933 ± 0.039,0.969 ± 0.04,0.95 ± 0.025,0.96 ± 0.033,0.985 ± 0.03
UniProt Q8NCR0 and related entries,1.1 ± 0.038,1.09 ± 0.06,1.105 ± 0.0034,1.06 ± 0.13,1.11 ± 0.07,1.08 ± 0.095
EXOC8 (UniProt Q8IYI6),1.01 ± 0.018,0.995 ± 0.021,0.98505 ± 0.00046,0.996 ± 0.027,0.981 ± 0.018,0.982 ± 0.014
UBR7 (UniProt Q8N806),0.975 ± 0.037,0.983 ± 0.024,0.963 ± 0.038,0.957 ± 0.029,0.945 ± 0.047,0.951 ± 0.042
MICALL1 (UniProt Q8N3F8),0.931 ± 0.034,0.958 ± 0.016,0.946 ± 0.029,0.9653 ± 0.0025,0.917 ± 0.015,0.925 ± 0.016
UniProt Q8NDX5 and related entries,0.983 ± 0.11,1.06 ± 0.081,0.943 ± 0.095,1.08 ± 0.18,1.04 ± 0.12,1.12 ± 0.059
FBXO22 (UniProt Q8NEZ5),1.11 ± 0.15,1.07 ± 0.12,1.08 ± 0.077,0.981 ± 0.19,1.08 ± 0.086,1.01 ± 0.063
ANKRD13A (UniProt Q8IZ07),1.03 ± 0.11,0.981 ± 0.084,0.998 ± 0.081,0.956 ± 0.055,0.998 ± 0.022,1 ± 0.047
PM20D2 (UniProt Q8IYS1),1.01 ± 0.05,0.993 ± 0.041,0.969 ± 0.024,0.941 ± 0.076,0.983 ± 0.023,0.971 ± 0.046
UniProt Q8NDV7 and related entries,1.09 ± 0.046,1.08 ± 0.07,1.11 ± 0.071,1.15 ± 0.19,1.22 ± 0.084,1.17 ± 0.064
UniProt Q8N3X6 and related entries,0.923 ± 0.067,0.913 ± 0.098,0.979 ± 0.056,1.01 ± 0.034,0.844 ± 0.081,0.893 ± 0.089
UniProt Q8N163,0.974 ± 0.029,0.893 ± 0.072,0.854 ± 0.065,0.893 ± 0.2,0.902 ± 0.12,0.872 ± 0.1
UniProt Q8N8E3 and related entries,1.11 ± 0.051,1.09 ± 0.035,1.05 ± 0.021,1.13 ± 0.055,1.06 ± 0.046,1.06 ± 0.017

# 2 successive entries from above:
Target,NP40-soluble protein abundance (concentration: 1mM),NP40-soluble protein abundance (concentration: 2mM),NP40-soluble protein abundance (concentration: 4mM),NP40-soluble protein abundance (concentration: 6mM),NP40-soluble protein abundance (concentration: 8mM),NP40-soluble protein abundance (concentration: 10mM)
MLKL (UniProt Q8NB16),1.01 ± 0.09,1 ± 0.04,0.986 ± 0.056,0.962 ± 0.089,0.955 ± 0.055,0.995 ± 0.04
COMMD1 (UniProt Q8N668),0.963 ± 0.066,0.951 ± 0.057,0.901 ± 0.067,0.938 ± 0.081,0.921 ± 0.05,0.853 ± 0.11
